Results deposited as PubChem BioAssay AID1224831 (NIAID, 2016).
Test: 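Confirming genome-wide hits on LPS-triggered TNF-alpha induction with independent siRNA sequences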 (follow-up of hits). Cells: human THP-1 B5 monocytic leukaemia cells carrying a TNF promoter luciferase reporter, made macrophage-like with PMA. Reagent: single siRNA against human genes, 50 nM. Timing: about 68 h of knock-down, then 4 h LPS. Treatment: LPS (Salmonella minnesota, TLR-grade) at 10 ng/ml for 4 h; PMA 5 ng/ml present during knock-down. Detection: 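TNF promoter reporter read as dual luciferase ratio after 4 h LPS, normalised per plate to its median, given as replicate mean robust z-score per siRNA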. Direction: TNF reporter z-score: higher = stronger LPS-induced TNF reporter signal; z-score, median over gene's siRNAs: higher = stronger TNF reporter signal across the gene's siRNAs. Rule for the call: 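Two-sided call: reduced or raised TNF reporter signal counts as active once mean z reaches about -1 or below, or about 1.5 or above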. Meaning of the calls: active = changed TNF reporter (either direction); inactive = little change.
Here is one part, drawn at random, of about 3,500 deposited reagents. Of all reagents, 731 (21%) were called active. 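Active means either lowered or raised reporter signal; the gene-median score did not drive the per-siRNA calls.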 Entries without a mark were called inactive. The numbers tell different reagents against one gene apart.

| Target gene | reagent | TNF reporter z-score, replicate mean | z-score, median over gene's siRNAs |
| --- | --- | --- | --- |
| CNTNAP3 | 1 | 0.67 | -0.13 |
| CNTNAP3 | 2 | -0.78 | -0.13 |
| CNTNAP3 | 3 | -1.37 (active) | -0.13 |
| CNTNAP3 | 4 | 3.95 (active) | -0.13 |
| CNTNAP3 | 5 | 0.35 | -0.13 |
| CNTNAP3 | 6 | -0.61 | -0.13 |
| PMP2 | 1 | 0.67 | 0.28 |
| PMP2 | 2 | 0.27 | 0.28 |
| PMP2 | 3 | -1.4 (active) | 0.28 |
| PMP2 | 4 | -0.49 | 0.28 |
| PMP2 | 5 | 0.29 | 0.28 |
| PMP2 | 6 | 0.34 | 0.28 |
| AKAP6 | 1 | 0.3 | 0.08 |
| AKAP6 | 2 | 1.08 | 0.08 |
| AKAP6 | 3 | -0.14 | 0.08 |
| AKAP6 | 4 | -0.14 | 0.08 |
| AKAP6 | 5 | -0.27 | 0.08 |
| AKAP6 | 6 | 0.87 | 0.08 |
| PLXNA1 | 1 | -1.25 (active) | -0.37 |
| PLXNA1 | 2 | 0.33 | -0.37 |
| PLXNA1 | 3 | -0.87 | -0.37 |
| PLXNA1 | 4 | -0.37 | -0.37 |
| PLXNA1 | 5 | -0.37 | -0.37 |
| PLXNA1 | 6 | 1.47 | -0.37 |
| SOBP | 1 | 1.01 | 0.22 |
| SOBP | 2 | -1.47 (active) | 0.22 |
| SOBP | 3 | 0.25 | 0.22 |
| SOBP | 4 | 0.12 | 0.22 |
| SOBP | 5 | 0.9 | 0.22 |
| SOBP | 6 | 0.19 | 0.22 |

Entries above with an active call, once more:
| Target gene | reagent | TNF reporter z-score, replicate mean | z-score, median over gene's siRNAs |
| --- | --- | --- | --- |
| CNTNAP3 | 3 | -1.37 (active) | -0.13 |
| CNTNAP3 | 4 | 3.95 (active) | -0.13 |
| PMP2 | 3 | -1.4 (active) | 0.28 |
| PLXNA1 | 1 | -1.25 (active) | -0.37 |
| SOBP | 2 | -1.47 (active) | 0.22 |

The list goes on:
| Target gene | reagent | TNF reporter z-score, replicate mean | z-score, median over gene's siRNAs |
| --- | --- | --- | --- |
| ZNF607 | 1 | 0.76 | 0.365 |
| ZNF607 | 2 | -0.33 | 0.365 |
| ZNF607 | 3 | 0.2 | 0.365 |
| ZNF607 | 4 | -0.36 | 0.365 |
| ZNF607 | 5 | 0.83 | 0.365 |
| ZNF607 | 6 | 0.53 | 0.365 |
| CCNL2 | 1 | 1.87 (active) | 1.38 |
| CCNL2 | 2 | 0.88 | 1.38 |
| CCNL2 | 3 | 0.41 | 1.38 |
| CCNL2 | 4 | 0.18 | 1.38 |
| CCNL2 | 5 | 4.79 (active) | 1.38 |
| CCNL2 | 6 | 3.97 (active) | 1.38 |
| HTR6 | 1 | 1.09 | 0.21 |
| HTR6 | 2 | 0.53 | 0.21 |
| HTR6 | 3 | -0.47 | 0.21 |
| HTR6 | 4 | -0.64 | 0.21 |
| HTR6 | 5 | 4.02 (active) | 0.21 |
| HTR6 | 6 | -0.11 | 0.21 |
| PSMD11 | 1 | -0.21 | -0.42 |
| PSMD11 | 2 | -0.33 | -0.42 |
| PSMD11 | 3 | -0.51 | -0.42 |
| PSMD11 | 4 | -1.55 (active) | -0.42 |
| PSMD11 | 5 | -0.51 | -0.42 |
| PSMD11 | 6 | -0.31 | -0.42 |
| CCDC92 | 1 | 1.37 | 0.695 |
| CCDC92 | 2 | 1.57 (active) | 0.695 |
| CCDC92 | 3 | 0.33 | 0.695 |
| CCDC92 | 4 | 1.06 | 0.695 |
| CCDC92 | 5 | -0.67 | 0.695 |
| CCDC92 | 6 | 0.24 | 0.695 |
| SAMD1 | 1 | -0.02 | -0.325 |
| SAMD1 | 2 | -0.03 | -0.325 |
| SAMD1 | 3 | -0.37 | -0.325 |
| SAMD1 | 4 | -0.44 | -0.325 |
| SAMD1 | 5 | -0.28 | -0.325 |
| SAMD1 | 6 | -1.43 (active) | -0.325 |
| ELAVL3 | 1 | 1.45 | 0.67 |
| ELAVL3 | 2 | 1.15 | 0.67 |
| ELAVL3 | 3 | 0.19 | 0.67 |
| ELAVL3 | 4 | -0.38 | 0.67 |
| ELAVL3 | 5 | 2.66 (active) | 0.67 |
| ELAVL3 | 6 | -0.03 | 0.67 |
| USP13 | 1 | 0.07 | 0.005 |
| USP13 | 2 | -0.07 | 0.005 |
| USP13 | 3 | -0.06 | 0.005 |
| USP13 | 4 | 2.62 (active) | 0.005 |
| USP13 | 5 | 0.21 | 0.005 |
| USP13 | 6 | -0.13 | 0.005 |
| CD52 | 1 | -2.62 (active) | 1.08 |
| CD52 | 2 | 0.95 | 1.08 |
| CD52 | 3 | 1.22 | 1.08 |
| CD52 | 4 | 1.56 (active) | 1.08 |
| CD52 | 5 | 2.41 (active) | 1.08 |
| CD52 | 6 | 0.05 | 1.08 |
